No constants are given. Whether binding was seen depends on the method and setting. Binding seen in cells or lysates may run through a third protein. A result given as binding can be weak or reduced; the word gives no strength. Sequences can lack the tags named with a protein.
What was measured:
[1] = molecular target: cytochrome c oxidase core subunit II (CO II) of Gluconobacter oxydans DSM 4025 (Gluconobacter oxydans DSM 4025); experiment: co-purified complex dissociated by preparative SDS-PAGE
[2] = molecular target: cytochrome c oxidase core subunit II (CO II) of Gluconobacter oxydans DSM 4025 (Gluconobacter oxydans DSM 4025); experiment: co-purification (DEAE, hydroxylapatite); single band on native PAGE, two bands on SDS-PAGE
[3] = molecular target: cytochrome c oxidase core subunit II (CO II) of Gluconobacter oxydans DSM 4025 (Gluconobacter oxydans DSM 4025); experiment: co-purification as one complex; dissociation by preparative SDS-PAGE

Measured: binding

B1: cytochrome c oxidase core subunit I (CO I) of Gluconobacter oxydans DSM 4025 (enzyme)
chain: MADAAIHGHDHHEKQGFFTRWFMSTNHKDIGLLYLVAAGVVGFISVLFTVYMRLELMDPGVQYMCLEGARLIADASQTCTANGHLWNVMVTYHGILMMFFVGIPALFGGFGNYLMPLQIGAPDMAFPRMNNLSFWLFIAGTAMGVASLFAPGGDGQLGSGVGWVLYPPLSTREAGYSMDLAIFAVHLSGASSIMGAINMITTFLNMRAPGMTLHKVPLFSWSIFITAWLILLALPVLAGAITMLLTDRNFGTTFFNPAGGGDPILYQHILWFFGHPEVYIIILPGFGIISHVVSTFSKKPVFGYLPMVYAMVAIGVLGFVVWAHHMYTVGMSLTQQSYFMLATMVIAVPTGIKIFSWIATMWGGSVEFKSPMLWAFGFMFLFTVGGVTGIVLAQAGLDRAYHDTYYVVAHFHYVMSLGAIFAIFAGIYFYMPKFSGRAFPEWAAKLHFWTFFIGANVTFFPQHFLGRQGMPRRYIDYPEAFALWNKVSSYGAFLAFASFLFFIVIFVYTLVAGRRETRPNPWGEFADTLEWTLPSPPPAHTFETLPKRSDWDKHPSH
modifications: N-terminal alpha-amino residue blocked by unidentified modification
binds: all assays above
